In publication PMC12532768:
pKd: −log10 of the molar value. For at least one entry, the source does not settle the construct or the ends of the probe.

Chains of the proteins cited; added tags and fusions are not shown. Lines headed by an entry give the natural chain unless they say otherwise; changes in a name come on top.
UniProt P05067: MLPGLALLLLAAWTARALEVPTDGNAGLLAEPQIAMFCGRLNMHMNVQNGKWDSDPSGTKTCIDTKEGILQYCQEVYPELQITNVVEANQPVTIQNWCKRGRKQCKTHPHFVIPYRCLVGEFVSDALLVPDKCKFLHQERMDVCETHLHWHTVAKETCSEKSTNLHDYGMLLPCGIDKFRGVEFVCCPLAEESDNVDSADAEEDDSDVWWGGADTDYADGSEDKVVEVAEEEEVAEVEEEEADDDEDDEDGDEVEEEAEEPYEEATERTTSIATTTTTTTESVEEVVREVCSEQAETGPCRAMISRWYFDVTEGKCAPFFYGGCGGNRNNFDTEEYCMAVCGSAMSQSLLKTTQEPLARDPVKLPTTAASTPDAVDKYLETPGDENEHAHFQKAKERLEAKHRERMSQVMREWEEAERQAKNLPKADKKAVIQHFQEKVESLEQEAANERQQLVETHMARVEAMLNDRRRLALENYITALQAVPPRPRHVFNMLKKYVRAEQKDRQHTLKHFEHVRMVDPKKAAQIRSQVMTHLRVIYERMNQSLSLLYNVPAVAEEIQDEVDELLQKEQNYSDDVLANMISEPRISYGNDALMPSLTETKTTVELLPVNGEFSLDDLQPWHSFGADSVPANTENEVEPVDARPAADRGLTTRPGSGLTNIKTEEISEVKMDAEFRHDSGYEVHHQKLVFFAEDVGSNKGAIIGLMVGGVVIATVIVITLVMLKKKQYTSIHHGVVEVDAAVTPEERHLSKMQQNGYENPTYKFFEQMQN

Biological target: Amyloid-beta 40 (Abeta40) (UniProt P05067)
Assay: not stated (literature value)
Details: value given for both aptamers together; 5'-amino C12, immobilized via glutaraldehyde; Binding buffer 10 mM Tris-HCl, 150 mM NaCl, 5 mM KCl, pH 7.4; temperature not stated; single-stranded DNA

## GCCTGTGGTGTTGGGGCGGGTGCG [apt1 (mOS1)]
  pKd: 7.60
